## Microarray screen: hit calls

Calls as published in the ROBIN set (doi:10.1002/anie.202211358).

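Each compound is printed as two spots on a slide made to bind it covalently, so it has no test concentration; the read-out is fluorescence of the bound, labelled oligonucleotide. For the PreQ1, TPP and SAM-II riboswitches the laboratory earlier reported (doi:10.1038/s41467-019-09493-3) 1 µM RNA, 2 h, and a rule that included a mean Z-score above 3 (spot signal-to-noise against the whole library), a score well above that on a control array, and duplicate spots agreeing (coefficient of variation under 100). The data file gives only the calls; its cut-offs may differ, and compounds hitting several targets are kept. These are primary screening calls, not affinities; a compound without a hit may have attached poorly or may still bind in solution.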 Key: hit = hit, no hit = tested without a hit. Compounds were drawn at random from those tested, without regard to their results. A target missing from an entry has no call listed here. A dash means that no call is listed here.

Targets, with sequences 5′ to 3′:
PreQ1: PreQ1 riboswitch RNA pseudoknot, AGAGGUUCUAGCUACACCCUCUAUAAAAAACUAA. From B. subtilis. About 170 hits among about 24,000 compounds.
SAM-II: SAM-II riboswitch RNA pseudoknot, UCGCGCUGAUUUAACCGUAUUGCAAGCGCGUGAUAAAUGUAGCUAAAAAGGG. About 200 hits among about 21,000 compounds.
TPP: TPP riboswitch RNA three-way junction, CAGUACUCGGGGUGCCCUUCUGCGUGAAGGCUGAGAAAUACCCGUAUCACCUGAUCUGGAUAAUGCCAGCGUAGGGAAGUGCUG. About 160 hits among about 24,000 compounds.

With CC(C)c1n[nH]c2c1C(c1cccc(Cl)c1Cl)C(C#N)=C(N)O2 (stereo not shown) the screen gave PreQ1: no hit; SAM-II: no hit; TPP: no hit.
With COc1cc(C2C(C#N)=C(N)OC(C)=C2C(=O)OC(C)C)cc(OC)c1OC (stereo not shown) the screen gave PreQ1: no hit; SAM-II: no hit; TPP: no hit.
With O=C(C1CCCN1Cc1ccccc1)N1CCC2(CC1)NCCNC2=O (stereo not shown) the screen gave PreQ1: no hit; SAM-II: no hit; TPP: no hit.
With CC(C)CC1C(C#N)=C(N)OC2=C1C(=O)CC(c1ccccc1)C2 (stereo not shown) the screen gave PreQ1: no hit; SAM-II: no hit; TPP: no hit.
With CC1CCN(CC(O)COc2ccc(C34CC5CC(CC(C5)C3)C4)cc2)CC1.Cl (stereo not shown) the screen gave PreQ1: no hit; SAM-II: no hit; TPP: no hit.
With CC(C)CCNc1nc2c(c(=O)[nH]c(=O)n2C)n1CCO the screen gave PreQ1: no hit; SAM-II: no hit; TPP: no hit.
With CCNC(=O)c1nn(-c2ccc(Cl)cc2)nc1CO the screen gave PreQ1: no hit; TPP: no hit.
With Cc1ccc2cc(-c3noc(C)n3)c(NCc3ccccc3F)nc2c1 the screen gave PreQ1: no hit; TPP: no hit.
With CSc1ccc(CCNc2ccc3nnc(-c4ccccc4)n3n2)cc1 the screen gave PreQ1: no hit; SAM-II: no hit; TPP: no hit.
With O=C(NCC(O)c1ccccc1)c1cccc(Cl)c1 (stereo not shown) the screen gave PreQ1: no hit; SAM-II: no hit; TPP: no hit.
With Cl.Clc1ccc(CNCc2ccco2)cc1 the screen gave PreQ1: no hit; SAM-II: no hit; TPP: no hit.
With CCCC1=C(C(=O)OCC)C(c2cccnc2)C(C#N)=C(N)O1 (stereo not shown) the screen gave PreQ1: no hit; SAM-II: no hit; TPP: no hit.
With CCc1nc(N)nc(N2C[C@H]3CCC[C@@]3(CO)C2)c1C the screen gave PreQ1: no hit; SAM-II: no hit; TPP: no hit.
With CCOC(=O)c1ccc(N2C(=O)CC(N3CCC(Nc4ccc5c(c4)OCO5)CC3)C2=O)cc1 (stereo not shown) the screen gave PreQ1: no hit; SAM-II: no hit; TPP: no hit.
With COC(=O)C1CC(O)C(O)C(O)C1 (stereo not shown) the screen gave PreQ1: no hit; SAM-II: no hit; TPP: no hit.
With CCC(c1nc(CCOC)nn1CCO)N1CCCC1 (stereo not shown) the screen gave PreQ1: no hit; SAM-II: no hit; TPP: no hit.
With N#CC1=C(N)Oc2[nH]nc(-c3ccc4c(c3)OCO4)c2C1c1cccc(F)c1 (stereo not shown) the screen gave PreQ1: no hit; SAM-II: no hit; TPP: no hit.
With CN1C[C@@H](N)C[C@H]1C(=O)NC1CCN(C(=O)NC2CCCCC2)CC1 the screen gave PreQ1: no hit; SAM-II: no hit; TPP: no hit.
With C[C@]12CC[C@@H]3c4ccc(OC(=O)N(CCCl)CCCl)cc4CC[C@H]3[C@@H]1CC[C@@H]2OP(=O)([O-])[O-].[Na+].[Na+] the screen gave PreQ1: no hit; SAM-II: no hit; TPP: no hit.
With CS(=O)(=O)c1ccc(-c2ccc3ncnc(NCCO)c3c2)cc1 the screen gave PreQ1: no hit; SAM-II: no hit; TPP: no hit.
With Cc1ccc2c(c1)c1c(n2CC(O)CNCC2CCCO2)CCCC1 (stereo not shown) the screen gave PreQ1: no hit; SAM-II: no hit; TPP: no hit.
With CCC(Nc1nc(N)nc2c1CCCC2)c1ccnn1C (stereo not shown) the screen gave PreQ1: no hit; SAM-II: no hit; TPP: no hit.
With c1ccc2c(c1)Sc1ccccc1N2CC1CN2CCC1CC2 (stereo not shown) the screen gave PreQ1: no hit; SAM-II: no hit; TPP: no hit.
With COc1ccc(/C=C2/CCOC2=O)cc1 the screen gave PreQ1: no hit; SAM-II: no hit; TPP: no hit.
With CCC1=C[C@@H]2CN(C1)Cc1c([nH]c3ccccc13)[C@@](C(=O)OC)(c1cc3c(cc1OC)N(C)[C@H]1[C@@](O)(C(=O)OC)[C@H](OC(C)=O)[C@]4(CC)C=CCN5CC[C@]31[C@@H]54)C2.O=C(O)C(O)C(O)C(=O)O.O=C(O)C(O)C(O)C(=O)O the screen gave PreQ1: no hit; SAM-II: no hit; TPP: no hit.
With COc1ccc(-c2cc3ncc(-c4ccc(OC)c(OC)c4)c(N)n3n2)cc1 the screen gave PreQ1: no hit; SAM-II: no hit; TPP: no hit.
With Cc1ccccc1CCN1CCCC(CN(C)C(=O)c2cccc(N)n2)C1 (stereo not shown) the screen gave PreQ1: no hit; SAM-II: no hit; TPP: no hit.
With Nc1ccc(-c2ccc(F)c(CO)c2)cn1 the screen gave PreQ1: no hit; SAM-II: no hit; TPP: no hit.
With OCCOCCn1cc(-c2ncc[nH]2)nn1 the screen gave PreQ1: no hit; SAM-II: no hit; TPP: no hit.
With c1ccc2c(NCCCN3CCOCC3)c3c(nc2c1)CCC3 the screen gave PreQ1: no hit; SAM-II: no hit; TPP: no hit.
With CN(C)c1cc(N)c2ccccc2n1.O=C(O)c1cc([N+](=O)[O-])ccc1Cl the screen gave PreQ1: no hit; SAM-II: no hit; TPP: no hit.
With CC(O)CCC(=O)NCCc1nc2ccccc2n1Cc1ccccc1Cl (stereo not shown) the screen gave PreQ1: no hit; TPP: no hit.

Some entries from above, unchanged:

Compound	PreQ1	SAM-II	TPP
N#CC1=C(N)Oc2[nH]nc(-c3ccc4c(c3)OCO4)c2C1c1cccc(F)c1 (stereo not shown)	no hit	no hit	no hit
Cc1ccc2cc(-c3noc(C)n3)c(NCc3ccccc3F)nc2c1	no hit	-	no hit
COc1cc(C2C(C#N)=C(N)OC(C)=C2C(=O)OC(C)C)cc(OC)c1OC (stereo not shown)	no hit	no hit	no hit